Measured values reported in the supplement of paper PMC4604168 (melanoma cell lines).
Some of the results follow. Single values are uncertain, as repeats are few or missing.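 The apoptosis fraction was the count of cleaved-PARP antibody-stained nuclei relative to all DNA-stained nuclei, imaged in 1,536-well plates. Screening doses were set so most cells survived, and baseline and induced cleaved-PARP levels vary greatly across cell lines.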

Tested on: IPC-298
Assay: cleaved PARP positive nuclei fraction relative to DMSO control; melanoma cells; higher = more apoptosis
Conditions: library dose: low library concentration; 72 h

Row | Structure (SMILES) | cleaved PARP positive nuclei fraction
1 | CCc1ccc(CCOc2ccc(CC3SC(=O)NC3=O)cc2)nc1 (stereo unspecified) [pioglitazone] + CCCCCCCCCCCC1=C(O)C(=O)C=C(O)C1=O [Embelin] (first compound 2 µM, partner dose 1.2 µM) | 205%
2 | CN(C)S(=O)(=O)c1ccc2c(c1)/C(=C/c1cc3c([nH]1)CCCC3)C(=O)N2 + c1cc(-c2cnn3cc(-c4ccc(OCCN5CCCCC5)cc4)cnc23)ccn1 [Dorsomorphin] (first compound 0.4 µM, partner dose 0.4 µM) | 43.7%
3 | O=C(Nc1ccccc1)c1cc([N+](=O)[O-])ccc1Cl + O=c1cc(-c2cccc3c2Sc2ccccc2S3)oc(N2CCOCC2)c1 [KU55933] (first compound 2 µM, partner dose 1 µM) | 124%
4 | COc1cc2ncnc(Nc3ccc(Oc4ccccc4)cc3)c2cc1OC + O=C(O)C(=O)Nc1sc2c(c1C(=O)O)CCNC2 [TCS401] (first compound 2 µM, partner dose 1.66667 µM) | 199%
5 | COc1ccc(-c2ccc3c(N4CCOCC4)nc(N4C[C@@H](C)O[C@@H](C)C4)nc3n2)cc1CO + Oc1nc(-c2ccc(C(F)(F)F)cc2)nc2c1CSCC2 [XAV939] (first compound 0.02 µM, partner dose 2 µM) | 73.7%
6 | CN(NC(=O)CC(=O)NN(C)C(=S)c1ccccc1)C(=S)c1ccccc1 + CCc1ccc(CCOc2ccc(CC3SC(=O)NC3=O)cc2)nc1 [pioglitazone] (first compound 0.006 µM, partner dose 2 µM) | 26.6%
7 | CCc1ccc(CCOc2ccc(CC3SC(=O)NC3=O)cc2)nc1 (stereo unspecified) [pioglitazone] + Cc1cc([N+](=O)[O-])ccc1NS(=O)(=O)c1cc(Cl)ccc1Cl [FH535] (first compound 2 µM, partner dose 1 µM) | 86%
8 | CCN(CC)CCCCNc1ncc2cc(-c3cc(OC)cc(OC)c3)c(NC(=O)NC(C)(C)C)nc2n1 + O=c1cc(-c2cccc3c2Sc2ccccc2S3)oc(N2CCOCC2)c1 [KU55933] (first compound 0.1 µM, partner dose 1 µM) | 159%
9 | COc1ccc(COc2ccc(Cc3cnc(N)nc3N)cc2OC)cc1 + O=C1NC(=O)/C(=C/c2ccc(-c3ccc(F)cc3O)o2)S1 [AS252424] (first compound 1 µM, partner dose 1 µM) | 83.6%
10 | Oc1cc(-c2nc(-c3ccccc3)[nH]c2-c2ccncc2)ccc1Cl + Cn1cc(/C=C2\C(=O)Nc3cccnc32)c2ccccc21 [GW441756] (first compound 0.2 µM, partner dose 0.4 µM) | 38%
11 | NCC(=O)Nc1ccc(-n2nc(C(F)(F)F)cc2-c2ccc3c(ccc4ccccc43)c2)cc1 + Oc1cc(-c2nc(-c3ccccc3)[nH]c2-c2ccncc2)ccc1Cl [L779450] (first compound 1 µM, partner dose 0.2 µM) | 111%
12 | O=S(=O)(c1ccccc1)N(CC(F)(F)F)c1ccc(C(O)(C(F)(F)F)C(F)(F)F)cc1 + CC(C)CCN1c2nc(Nc3cc(F)c(O)c(F)c3)ncc2N(C)C(=O)C1C [BID1870] (first compound 1.4 µM, partner dose 0.2 µM) | 97.9%
13 | Cn1cc(/C=C2\C(=O)Nc3cccnc32)c2ccccc21 + CC(C)CCN1c2nc(Nc3cc(F)c(O)c(F)c3)ncc2N(C)C(=O)C1C [BID1870] (first compound 0.4 µM, partner dose 0.2 µM) | 166%
14 | O=C1NC(=O)/C(=C/c2ccc(-c3ccc(F)cc3O)o2)S1 + COc1cc(N2CCC(N3CCN(C)CC3)CC2)ccc1Nc1ncc(Cl)c(Nc2ccccc2S(=O)(=O)C(C)C)n1 [NVP-TAE684] (first compound 1 µM, partner dose 0.08 µM) | 112%
15 | N#Cc1c(O)c2c(-c3ccc(-c4ccccc4O)cc3)csc2[nH]c1=O + CCN(CC)CCCCNc1ncc2cc(-c3cc(OC)cc(OC)c3)c(NC(=O)NC(C)(C)C)nc2n1 [PD173074] (first compound 2 µM, partner dose 0.1 µM) | 78.3%
16 | CN(C)S(=O)(=O)c1ccc2c(c1)/C(=C/c1cc3c([nH]1)CCCC3)C(=O)N2 + COc1ccc2c(c1)CCC1C2CCC2(C)C(NCCCCCCN3C(=O)C=CC3=O)CCC12 [U73122] (first compound 0.4 µM, partner dose 0.4 µM) | 125%
17 | Oc1cc(-c2nc(-c3ccccc3)[nH]c2-c2ccncc2)ccc1Cl + c1cc(-c2cnn3cc(-c4ccc(OCCN5CCCCC5)cc4)cnc23)ccn1 [Dorsomorphin] (first compound 0.2 µM, partner dose 0.4 µM) | 259%
18 | Oc1nc(-c2ccc(C(F)(F)F)cc2)nc2c1CSCC2 + CCCCCCCCCCCC1=C(O)C(=O)C=C(O)C1=O [Embelin] (first compound 2 µM, partner dose 1.2 µM) | 75.7%

Row | Structure (SMILES) | cleaved PARP positive nuclei fraction
19 | CN(C)S(=O)(=O)c1ccc2c(c1)/C(=C/c1cc3c([nH]1)CCCC3)C(=O)N2 + CCN(CC)CCCCNc1ncc2cc(-c3cc(OC)cc(OC)c3)c(NC(=O)NC(C)(C)C)nc2n1 [PD173074] (first compound 0.4 µM, partner dose 0.1 µM) | 28%
20 | COc1ccc(-c2ccc3c(N4CCOCC4)nc(N4C[C@@H](C)O[C@@H](C)C4)nc3n2)cc1CO + O=c1cc(-c2cccc3c2Sc2ccccc2S3)oc(N2CCOCC2)c1 [KU55933] (first compound 0.02 µM, partner dose 1 µM) | 77.7%
21 | NCC(=O)Nc1ccc(-n2nc(C(F)(F)F)cc2-c2ccc3c(ccc4ccccc43)c2)cc1 + Cn1cc(/C=C2\C(=O)Nc3cccnc32)c2ccccc21 [GW441756] (first compound 1 µM, partner dose 0.4 µM) | 28.5%
22 | COc1ccc(-c2ccc3c(N4CCOCC4)nc(N4C[C@@H](C)O[C@@H](C)C4)nc3n2)cc1CO + CC(C)CCN1c2nc(Nc3cc(F)c(O)c(F)c3)ncc2N(C)C(=O)C1C [BID1870] (first compound 0.02 µM, partner dose 0.2 µM) | 89.9%
23 | CCN(CC)CCCCNc1ncc2cc(-c3cc(OC)cc(OC)c3)c(NC(=O)NC(C)(C)C)nc2n1 + Cc1cc([N+](=O)[O-])ccc1NS(=O)(=O)c1cc(Cl)ccc1Cl [FH535] (first compound 0.1 µM, partner dose 1 µM) | 117%
24 | COc1cc2c(Oc3ccc4[nH]c(C)cc4c3F)ncnc2cc1OCCCN1CCCC1 [cediranib] + CCN(CC)CCCCNc1ncc2cc(-c3cc(OC)cc(OC)c3)c(NC(=O)NC(C)(C)C)nc2n1 [PD173074] (first compound 0.4 µM, partner dose 0.1 µM) | 25.7%
25 | O=C(O)c1ccc(-c2c[nH]c3ncc(-c4ccccc4)cc23)cc1C1CCCC1 + Cn1cc(/C=C2\C(=O)Nc3cccnc32)c2ccccc21 [GW441756] (first compound 0.16 µM, partner dose 0.4 µM) | 88%
26 | O=C(O)c1ccc(-c2c[nH]c3ncc(-c4ccccc4)cc23)cc1C1CCCC1 + Oc1nc(-c2ccc(C(F)(F)F)cc2)nc2c1CSCC2 [XAV939] (first compound 0.16 µM, partner dose 2 µM) | 58.4%
27 | N#Cc1c(O)c2c(-c3ccc(-c4ccccc4O)cc3)csc2[nH]c1=O + COc1cc(N2CCC(N3CCN(C)CC3)CC2)ccc1Nc1ncc(Cl)c(Nc2ccccc2S(=O)(=O)C(C)C)n1 [NVP-TAE684] (first compound 2 µM, partner dose 0.08 µM) | 111%
28 | Oc1cc(-c2nc(-c3ccccc3)[nH]c2-c2ccncc2)ccc1Cl + COc1cc(N2CCC(N3CCN(C)CC3)CC2)ccc1Nc1ncc(Cl)c(Nc2ccccc2S(=O)(=O)C(C)C)n1 [NVP-TAE684] (first compound 0.2 µM, partner dose 0.08 µM) | 92.4%
29 | COc1ccc2c(c1)CCC1C2CCC2(C)C(NCCCCCCN3C(=O)C=CC3=O)CCC12 (stereo unspecified) + Oc1cc(-c2nc(-c3ccccc3)[nH]c2-c2ccncc2)ccc1Cl [L779450] (first compound 0.4 µM, partner dose 0.2 µM) | 112%
30 | COc1cc2c(Oc3ccc4[nH]c(C)cc4c3F)ncnc2cc1OCCCN1CCCC1 [cediranib] + Oc1cc(-c2nc(-c3ccccc3)[nH]c2-c2ccncc2)ccc1Cl [L779450] (first compound 0.4 µM, partner dose 0.2 µM) | 38.2%
31 | O=S(=O)(c1ccccc1)N(CC(F)(F)F)c1ccc(C(O)(C(F)(F)F)C(F)(F)F)cc1 + Cn1cc(/C=C2\C(=O)Nc3cccnc32)c2ccccc21 [GW441756] (first compound 1.4 µM, partner dose 0.4 µM) | 123%
32 | N#Cc1c(O)c2c(-c3ccc(-c4ccccc4O)cc3)csc2[nH]c1=O + CC(C)CCN1c2nc(Nc3cc(F)c(O)c(F)c3)ncc2N(C)C(=O)C1C [BID1870] (first compound 2 µM, partner dose 0.2 µM) | 106%
33 | O=S(=O)(c1ccccc1)N(CC(F)(F)F)c1ccc(C(O)(C(F)(F)F)C(F)(F)F)cc1 + Oc1cc(-c2nc(-c3ccccc3)[nH]c2-c2ccncc2)ccc1Cl [L779450] (first compound 1.4 µM, partner dose 0.2 µM) | 50.8%
34 | CN(NC(=O)CC(=O)NN(C)C(=S)c1ccccc1)C(=S)c1ccccc1 + COC(=O)c1sccc1S(=O)(=O)Nc1ccc(Nc2ccccc2)cc1OC [GSK0660] (first compound 0.006 µM, partner dose 1 µM) | 89%
35 | COc1cc2c(Oc3ccc4[nH]c(C)cc4c3F)ncnc2cc1OCCCN1CCCC1 [cediranib] + O=C(O)C(=O)Nc1sc2c(c1C(=O)O)CCNC2 [TCS401] (first compound 0.4 µM, partner dose 1.66667 µM) | 95.3%
36 | COC(=O)c1sccc1S(=O)(=O)Nc1ccc(Nc2ccccc2)cc1OC + CCCCCCCCCCCC1=C(O)C(=O)C=C(O)C1=O [Embelin] (first compound 1 µM, partner dose 1.2 µM) | 53%
